According to patent publication US8133903B2, “Methods of use of inhibitors of phosphodiesterases and modulators of nitric oxide, reactive oxygen species, and metalloproteinases in the treatment of peyronie's disease, arteriosclerosis and other fibrotic diseases” (Los Angeles Biomedical Research Institute at Harbor—UCLA …, priority 2003, dated 2012):
Some entries share one result that the patent states for a list of compounds.

Test system: fibroblast cultures from human PD plaque
Experiment: Collagen I/III and ASMA immunocytochemistry with QIA in fibroblast cultures from human PD plaque
Format: cell-based
Settings: 3 days; for cells in which collagen I synthesis was completely inhibited (% of the total) / decrease in average intensity of collagen I expression per cell: 200 nM; for reduction of average ASMA expression per cell: all cases (sildenafil 50 and 200 nM, pentoxifylline 200 nM)
Excerpt: Primary human cell cultures: Human fibroblast primary cultures were obtained from fragments of PD plaque or TA essentially according to Smith and Liu (2002), and their purity was established by immunohistochemistry, as detailed below. New primary cultures were obtained from fragments of PD plaque or TA that were washed in Hanks solution, minced in a fibroblast growth medium (FGM) (BioWhittaker Inc., Walkersville, Md.) and 20% fetal bovine serum (FBS), and plated onto a 25 cm^2 culture flask per specimen (Vernet et al., 2002). Fragments were left undisturbed until attachment for about 1 week. Once the monolayer started to develop, the fragment was removed. Medium with 10% FBS was changed once a week and when cells achieved approximately 80% confluence (3-4 weeks) they were trypsinized and split onto 10 cm plates. Cells were allowed to grow again to 80% confluence, with medium changed twice a week. The cells collected from this passage were considered as passage 1. Successive passages were performed at 1/3 split ratio, and studies were carried out on cells from passages 3 onwards. Studies were performed with PD cells from the 4th to the 10th passages. Cells were incubated on: a) 75 cm^2 flasks for RNA isolation; b) 6-well plates for protein isolation; and c) 8-well removable chambers for cytochemistry and immunocytochemistry. Treatments with different additions were initiated 24 hours after plating and continued for different periods.
In the case of cell cultures, at completion of incubations, slides were removed from the chambers and cells were fixed for immunodetection for 20 min in 4% buffered formalin at room temperature for α-smooth muscle actin (ASMA) (as a myofibroblast marker), vimentin (as a general fibroblast marker), and in certain cases for PDE5 and PDE4, or in ethanol at −20 C for collagen I and III (Vernet et al., 2002). The cells were quenched, blocked with normal goat serum and incubated with monoclonal primary antibodies for ASMA and vimentin (Sigma Immunohistology Kits, Sigma Chemical Co, St. Louis, Mo.), collagen I, and collagen III (1:40) (Chemicon International, Temecula, Calif.), overnight at 4° C. (Vernet et al., 2002; Ferrini et al., 2002). Processing was according with the manufacturer's instructions for ASMA, vimentin and collagen, consisting in the respective monoclonal antibodies and an anti-mouse biotinylated secondary antibody, followed by avidin-biotinylated HRP and the 3-amino-9-ethylcarbazol (AEC) chromogen. For PDE5A, the antibodies were as described above. Negative controls omitted the first antibodies or were replaced by IgG isotype at the same concentration of the first antibodies. Counterstaining was done with Mayer's hematoxylin. All the slides were mounted with Aqua Mount (Lerner, Pittsburgh, Pa.). For PDE4, the anti PDE4A and PDE4B affinity purified IgGs used for western blot was employed, and in addition the anti-PDE4A4 and anti-PDE4D (detecting variants 1-5) from the same source (FabGennix Inc.) were used.
The quantitation of the staining obtained by either histochemical or immunohisto/cytochemical techniques was performed by computerized densitometry using the ImagePro 4.01 program (Media Cybernetics, Silver Spring, Md.), coupled to an Olympus BHS microscope equipped with a Spot RT digital camera or VCC video camera (Wang et al., 2001; Ferrini et al., 2001a, 2001b; Davila et al., 2003b).

Structure (SMILES)	cells in which collagen I synthesis was completely inhibited (% of the total)	decrease in average intensity of collagen I expression per cell	reduction of average ASMA expression per cell
CCCc1nn(C)c2c(=O)[nH]c(-c3cc(S(=O)(=O)N4CCN(C)CC4)ccc3OCC)nc12 [sildenafil]	5-15%	30-40%	more than 90%
CC(=O)CCCCn1c(=O)c2c(ncn2C)n(C)c1=O [pentoxifylline]	5-15%	30-40%	more than 90%
